The other results are listed elsewhere or left out.
Target: OsWRKY34 (Oryza sativa, UniProt Q0JBA9 1-250)
Assay: protein-binding microarray (RPBM); PBS, 2% BSA, 51.3 ng/ul salmon testes DNA, 50 uM zinc acetate, 200 nM TF, 25 C, 1 h; high values mean tight binding
Conditions: protein: recombinant; tags: N-terminal polyhistidine and DsRed monomer fusion (pET32a); label: CyDye5-dUTP incorporated in the synthesized complementary strand; 3' TTTTT single-stranded linker to array surface; dsDNA, one strand shown
Method in brief: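 The binding signal for each feature is its fluorescence intensity in arbitrary units. An Axon 4000B scanner was used to read a custom Agilent array that had been made double-stranded with Cy5-dUTP primer extension, blocked with 2% BSA, incubated at 25 °C for 1 h with 200 nM protein in PBS, 2% BSA, salmon testes DNA and 50 µM zinc acetate, and washed. The protein was an N-terminal polyhistidine–DsRed transcription factor fusion from E. coli BL21-CodonPlus, purified on Ni–NTA.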

The chains behind the UniProt entries cited, without tags or fusion partners.
UniProt Q0JBA9, entry or part of it: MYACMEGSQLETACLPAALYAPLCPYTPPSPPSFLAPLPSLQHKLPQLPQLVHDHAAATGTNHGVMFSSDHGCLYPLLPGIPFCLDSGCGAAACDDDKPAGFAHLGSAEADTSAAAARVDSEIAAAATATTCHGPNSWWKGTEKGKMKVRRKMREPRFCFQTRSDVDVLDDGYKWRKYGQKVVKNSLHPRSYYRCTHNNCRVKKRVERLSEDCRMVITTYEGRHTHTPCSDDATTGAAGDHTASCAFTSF

Sequence | binding signal
TTCCTCATGTTATCTGTGGTTTAGATCGAGTTAGCATTTTCGGAGTCACCTAGTGCAG | 8420 fluorescence intensity (a.u.)
CGCTGCCATCGCTTCGATCTACTCCCCTGCGCACCCATCGCGGAGTCACCTAGTGCAG | 9210 fluorescence intensity (a.u.)
TCTCTTTTTTTGCAAAACCTTGCCTAATTGTTGCCATTGACGGAGTCACCTAGTGCAG | 8600 fluorescence intensity (a.u.)
GTCTTGCTGGCTCATCCATGGCAACTCGCTAATCACGTGACGGAGTCACCTAGTGCAG | 8350 fluorescence intensity (a.u.)
TTGGTTTTCACATTTTTTACTGCCAAATACTACCATTGACCGGAGTCACCTAGTGCAG | 9520 fluorescence intensity (a.u.)
CCGCACCGGATCTCATCTCATTCTCGCCGTCTTCTCTTCTCGGAGTCACCTAGTGCAG | 13300 fluorescence intensity (a.u.)
TTCTTATAGCTCAATTTTTTCCTTTCGTTTTGTACAGTTTCGGAGTCACCTAGTGCAG | 13500 fluorescence intensity (a.u.)
CTCCTTCTTCTTCTTCTCAACGATGTCCTAGCTAGGAATACGGAGTCACCTAGTGCAG | 9040 fluorescence intensity (a.u.)
AAACTGCCAGCTTTCTGCATCTCTCCGCCCTCATGATGCGCGGAGTCACCTAGTGCAG | 9490 fluorescence intensity (a.u.)
GCGCAGCTAGCTACAGATCTATAGTTCGCTACTTTGCTTTCGGAGTCACCTAGTGCAG | 8490 fluorescence intensity (a.u.)
TTAGCAAGGGAGTAGCTATATTTATGGCGCCATATTTTTCCGGAGTCACCTAGTGCAG | 8950 fluorescence intensity (a.u.)
TTTTTCACAATTAATTCATTCGTTTGTATAGTCGATTATCCGGAGTCACCTAGTGCAG | 9590 fluorescence intensity (a.u.)
CTTCACTTCTCCTCAAAGGGCTCATATTACTACCGAGTTGCGGAGTCACCTAGTGCAG | 8420 fluorescence intensity (a.u.)
ATCTCCGCCGTCAACATTTGGACTCCTTGAAGAATATAGCCGGAGTCACCTAGTGCAG | 8610 fluorescence intensity (a.u.)
CCAACCGCCGCGCCGCTTCGCTGTCTTCACCGTGCCGCTCCGGAGTCACCTAGTGCAG | 8620 fluorescence intensity (a.u.)
CCTGCCACGACTTGCGTATATACTTGCGGTAACCTGTCAACGGAGTCACCTAGTGCAG | 8640 fluorescence intensity (a.u.)
AACACAGTTTTCTGGCATTGACTTGCTGCCTGTTTTTCTTCGGAGTCACCTAGTGCAG | 8600 fluorescence intensity (a.u.)
ACCACTCCATCAGTCCACCACCCACCTTCCCCGACCTTATCGGAGTCACCTAGTGCAG | 10100 fluorescence intensity (a.u.)
GATAATTACTCTTACGTCCCTCACCCTATGTTCCTGTGTTCGGAGTCACCTAGTGCAG | 8840 fluorescence intensity (a.u.)
GACTCCTCCTGCTAGCTCGCCCGTATCCAGCTCTACCTTCCGGAGTCACCTAGTGCAG | 13300 fluorescence intensity (a.u.)
GTCACCTTTGTACCATCCAATTCCAACCCCACATTTCATCCGGAGTCACCTAGTGCAG | 8100 fluorescence intensity (a.u.)

Sequence | binding signal
ATTGATCTCCTTTCCATCCTCGTCGACCTCGGCGGGCGCGCGGAGTCACCTAGTGCAG | 9220 fluorescence intensity (a.u.)
TCCAGCTGCTTGCTTCTCTCTCTCTCTTCTCTTGAGCATCCGGAGTCACCTAGTGCAG | 9650 fluorescence intensity (a.u.)
CAGGTTTTAAGTAGATAGGTGGTTTTTTTTTTCCCATAGACGGAGTCACCTAGTGCAG | 8270 fluorescence intensity (a.u.)
TCGGCCGCCGGCGTCAATCTTCGATTCCCTCCGCTCCGGTCGGAGTCACCTAGTGCAG | 8270 fluorescence intensity (a.u.)
TCCTCGGCCTCTTCTTCGCGCCCTCCGCCCCGCGACCGGGCGGAGTCACCTAGTGCAG | 10300 fluorescence intensity (a.u.)
CGCGTCCACGTCGGGCTCCGGGGATGGGGCGGGGAAGCCGCGGAGTCACCTAGTGCAG | 10500 fluorescence intensity (a.u.)
CACCAACTTACCGTCGTTCCAAGCCTTGTTTCTGCAGGCTCGGAGTCACCTAGTGCAG | 12500 fluorescence intensity (a.u.)
GTCATATGGCACCATGCTTGCTCTCCACTCTTCAATCAGTCGGAGTCACCTAGTGCAG | 9490 fluorescence intensity (a.u.)
TGCTTACCTAGTTACCTGACATGCTATTGATTCTTCATAACGGAGTCACCTAGTGCAG | 8840 fluorescence intensity (a.u.)
GGCTGCTCCTGGCTCATCGTCCTAGTACACTCTCGTCGTACGGAGTCACCTAGTGCAG | 9100 fluorescence intensity (a.u.)
CTTTCTCGCTGCTGTTTTTTTAGCTCGTGCCTGTCTGGTCCGGAGTCACCTAGTGCAG | 8370 fluorescence intensity (a.u.)
TGGTTTCTTTGTCCATTGATCAAACTCATGGCATGTACGACGGAGTCACCTAGTGCAG | 8360 fluorescence intensity (a.u.)
CCCCGGCCATGTCCAAGCCCGATCGCCGCTCCGGCGCCGCCGGAGTCACCTAGTGCAG | 9910 fluorescence intensity (a.u.)
CCACTCATCGTCACGCCATTTCACCGCTTCCCTTTCCTGACGGAGTCACCTAGTGCAG | 10500 fluorescence intensity (a.u.)
CATACTTCAATTTAATGCTACTTATCTCACATGATGTCTTCGGAGTCACCTAGTGCAG | 8700 fluorescence intensity (a.u.)
CCTCTCCCTCTCCCGCCGCCACCGCCTCCGCCTCCGCCTCCGGAGTCACCTAGTGCAG | 9220 fluorescence intensity (a.u.)
ACCTGTTGTGATATACTGTGTTTAGTTCAGCGTAAAATTTCGGAGTCACCTAGTGCAG | 9280 fluorescence intensity (a.u.)
TCCCACGTTGCTCCATCTCTCGCTATAAACCATTTCTTCTCGGAGTCACCTAGTGCAG | 13400 fluorescence intensity (a.u.)
TTCCTATCATTTGACTAATTGTTAAATATACTTTCATATACGGAGTCACCTAGTGCAG | 8160 fluorescence intensity (a.u.)
CGACGGCTGCTAATCAACTCTTGAATTCACATCCAACGGACGGAGTCACCTAGTGCAG | 8200 fluorescence intensity (a.u.)
ACCCTGTTGCTCATATTTTTTATTGGATTTCCCTTTTTTTCGGAGTCACCTAGTGCAG | 12000 fluorescence intensity (a.u.)

Looked up above:
In binding signal, ACCTGTTGTGATATACTGTGTTTAGTTCAGCGTAAAATTTCGGAGTCACCTAGTGCAG has the entry 9280 fluorescence intensity (a.u.)
In binding signal, GGCTGCTCCTGGCTCATCGTCCTAGTACACTCTCGTCGTACGGAGTCACCTAGTGCAG has the entry 9100 fluorescence intensity (a.u.)

Later entries

Sequence | binding signal
TCTCTCCCCGCCTCCTCGCGGTGTCTGCCTCTCTCTCTCGCGGAGTCACCTAGTGCAG | 9940 fluorescence intensity (a.u.)
TATGATATGTGTGCCTCAGTTGTTGTGCTTGCTGATGTGTCGGAGTCACCTAGTGCAG | 9730 fluorescence intensity (a.u.)
CAGGTGTTTGTCTGCTAGTTCATGTAGCGTTGTGAGCATCCGGAGTCACCTAGTGCAG | 8060 fluorescence intensity (a.u.)
AAACCCTTTTTTTCCCTTTAATTCTCATGTAAATTATTATCGGAGTCACCTAGTGCAG | 8180 fluorescence intensity (a.u.)
GGTCATTCGTTCGTTGTTTTAACAGTTTGTTTTTTTTATACGGAGTCACCTAGTGCAG | 9340 fluorescence intensity (a.u.)
AGGAGGATGTTGAAGGAAGATGTGGATATTTATATCCAATCGGAGTCACCTAGTGCAG | 10100 fluorescence intensity (a.u.)
ATCCCGGATAGCTACCTGTGCTTCAATTCCTCTGCAAATCCGGAGTCACCTAGTGCAG | 8230 fluorescence intensity (a.u.)
AGAAACCGAAACCTGCAAAATTTTCAGCGATCATTTCAGTCGGAGTCACCTAGTGCAG | 8580 fluorescence intensity (a.u.)
CCACATGGCCACACCCACACTCTCTCCTTCTCTTGGGCTCCGGAGTCACCTAGTGCAG | 11500 fluorescence intensity (a.u.)
TCTGCAACTGGTCTACACAGGCATCATTTCCACGCTTGACCGGAGTCACCTAGTGCAG | 10300 fluorescence intensity (a.u.)
CATGCATGGTCCCTCACTGATCTCTTATCTCTTTCTACATCGGAGTCACCTAGTGCAG | 9370 fluorescence intensity (a.u.)
ACGACTTAATCACACTGTTTTTTCTCTCCCGAGTACTTAACGGAGTCACCTAGTGCAG | 12100 fluorescence intensity (a.u.)
CCATATACCGTTCTGGCCCATACGATTTTTTTTGATCGGTCGGAGTCACCTAGTGCAG | 9210 fluorescence intensity (a.u.)
TCTTGATTTATTTTAGGACGGGTGGGTAGTTTTCTGCGTTCGGAGTCACCTAGTGCAG | 11400 fluorescence intensity (a.u.)
ACCGCGCTCTACTCCTCCACCTCGTCGTCCTCCTCCTCCGCGGAGTCACCTAGTGCAG | 9320 fluorescence intensity (a.u.)
CTTTCCATGGTTTTTGCTCCCGCAGCCCGGGCCACTGCCCCGGAGTCACCTAGTGCAG | 11600 fluorescence intensity (a.u.)
GCGAGGTCGGGGAGGTGGGTGCACAGTGCCCTGCGAGATGCGGAGTCACCTAGTGCAG | 8120 fluorescence intensity (a.u.)
TTCCGTCTTCTTCCTTCCTTCTCCATCTTCTTCGTGGCCACGGAGTCACCTAGTGCAG | 9170 fluorescence intensity (a.u.)
CTCTGTTCTATAATGTACTCCCTCCGGTTCTATAATAATTCGGAGTCACCTAGTGCAG | 8720 fluorescence intensity (a.u.)
TTGACGGAGCATCTATACCCGGTTTTGTAGTTCATGAACACGGAGTCACCTAGTGCAG | 9100 fluorescence intensity (a.u.)
GCTCCCTTGTGTGACAACGCCGATCCTCACCTACACCTTCCGGAGTCACCTAGTGCAG | 10200 fluorescence intensity (a.u.)

Looked up one by one from the entries so far:
Sequence | binding signal
TTGACGGAGCATCTATACCCGGTTTTGTAGTTCATGAACACGGAGTCACCTAGTGCAG | 9100 fluorescence intensity (a.u.)
CCACATGGCCACACCCACACTCTCTCCTTCTCTTGGGCTCCGGAGTCACCTAGTGCAG | 11500 fluorescence intensity (a.u.)
GCGCAGCTAGCTACAGATCTATAGTTCGCTACTTTGCTTTCGGAGTCACCTAGTGCAG | 8490 fluorescence intensity (a.u.)
CATGCATGGTCCCTCACTGATCTCTTATCTCTTTCTACATCGGAGTCACCTAGTGCAG | 9370 fluorescence intensity (a.u.)
CCTCTCCCTCTCCCGCCGCCACCGCCTCCGCCTCCGCCTCCGGAGTCACCTAGTGCAG | 9220 fluorescence intensity (a.u.)
CGCGTCCACGTCGGGCTCCGGGGATGGGGCGGGGAAGCCGCGGAGTCACCTAGTGCAG | 10500 fluorescence intensity (a.u.)

Next results.

Sequence | binding signal
GCGTCACATCGCTTGTGAGTTCGTCTCGTCGGCTTACTTACGGAGTCACCTAGTGCAG | 8600 fluorescence intensity (a.u.)
AATCTTTTAGCGGCTCATAGTCATCTTCTCCAACCGCCGTCGGAGTCACCTAGTGCAG | 8370 fluorescence intensity (a.u.)
CCGTTACCGCGAAATCAAAATGCCTGCCCCGCCACTTTTTCGGAGTCACCTAGTGCAG | 8970 fluorescence intensity (a.u.)
CTCATCATTCCTAACCATTTTCTCGGCCACCCATCTATCTCGGAGTCACCTAGTGCAG | 9810 fluorescence intensity (a.u.)
ACAAATAATTGTTTTCGTTGGTTGCGCACTTTATATATACCGGAGTCACCTAGTGCAG | 9420 fluorescence intensity (a.u.)
TTTGACGCCGTTGACTTTTTTAAAAATGTTTGACCGTTCACGGAGTCACCTAGTGCAG | 25100 fluorescence intensity (a.u.)
CGTCACATGCCTTCTGATTCGGTTTGTTCTGGCCTTCTTGCGGAGTCACCTAGTGCAG | 9810 fluorescence intensity (a.u.)
TATGAATGTTGTTGTGTTAGTATACGTATCCGTGATGTATCGGAGTCACCTAGTGCAG | 9210 fluorescence intensity (a.u.)
AGCCTAGGCTGACGAGCTCGCTCGAGCTCGGCTCGTTGACCGGAGTCACCTAGTGCAG | 9610 fluorescence intensity (a.u.)
CATACTCCCTCTATTTTATATTGTAAGTTATTTTGATTCTCGGAGTCACCTAGTGCAG | 8220 fluorescence intensity (a.u.)
AGTAGTAGTAGGGCTTTGCTCTGGTCTTGCAAGTTAGGTTCGGAGTCACCTAGTGCAG | 8230 fluorescence intensity (a.u.)
CCCTAAATATTTGACACCGTTGACTTTTTTAAATATGTTTCGGAGTCACCTAGTGCAG | 39600 fluorescence intensity (a.u.)
GATACTACAACGACGACGCCTGGCGATGGGTGGGGAGAAGCGGAGTCACCTAGTGCAG | 9070 fluorescence intensity (a.u.)
CCTCACCCGCACCCACCACCACCAACCTCCCACCCCACAACGGAGTCACCTAGTGCAG | 10300 fluorescence intensity (a.u.)
AACCTTTCCAAGATGCAAAGTTGCACCGCCAAACATCTATCGGAGTCACCTAGTGCAG | 8180 fluorescence intensity (a.u.)
TCTGTTATATTTACTATCCATACTATACGTGTAAATTTTACGGAGTCACCTAGTGCAG | 10200 fluorescence intensity (a.u.)
TTTTGTCTACTGCGCCTACCACGCCGTTGTCCACTACCTCCGGAGTCACCTAGTGCAG | 10400 fluorescence intensity (a.u.)
TGATTGAATGATTGCTCACTGTGTACTTGTTATTTTAATCCGGAGTCACCTAGTGCAG | 11500 fluorescence intensity (a.u.)
CGCACATTTATACACTGCTATTCGTGTTCTTTTCAAGTTACGGAGTCACCTAGTGCAG | 15000 fluorescence intensity (a.u.)
TTCGTCCCCTTCCTCGCTTCCACGCCAAAAGTCGTTCGCTCGGAGTCACCTAGTGCAG | 8660 fluorescence intensity (a.u.)
CAACACCTAATGCCATTGTTACTCTACCGTAGTAGTATATCGGAGTCACCTAGTGCAG | 8660 fluorescence intensity (a.u.)
